# Tested on: Jurkat T cells
# Assay: RNA-seq of Jurkat T cells
# Assay type: cell-based, human
# Conditions: 10 μM
# Experimental: RNA-seq and bioinformatics analysis. Jurkat T cells were grown to confluence in 100 mm plates in complete medium and incubated with 10 μM BT2 or vehicle for 4 h. Total RNA was extracted using the RNeasy Mini Kit (Qiagen, cat. no. 74004) with modification. Briefly, cells were washed twice with pre-cooled 1×PBS and TRIzol reagent (Thermo Fisher Scientific cat. no. 15596026) was added to lyse the cells. Chloroform was added to the mixture before microfuge centrifugation at 13000 rpm for 15 min at 4° C. The upper aqueous layer containing total RNA was transferred to fresh microtubes, and isopropanol was added and loaded into RNeasy columns. Columns were washed with buffers RW1 and RPE. Total RNA was eluted from the column using ribonuclease-free water. Samples were submitted to the UNSW Ramaciotti Centre for Genomics for TruSeq Stranded mRNA-seq preparation and sequencing by One NextSeq 500 1×75 bp high-output flow cell with data output up to 400 M reads. Quality control of samples was set at >80% higher than Q30 at 1×75 bp.
# RNA-seq reads were first assessed for quality using the tool FastQC (v0.11.8) www.bioinformatics.babraham.ac.uk/projects/fastqc/). The tool Salmon was used for quantifying transcript abundance from RNA-seq reads (Patro et al., 2017). The R package DESeq2 that incorporates a method for differential analysis of count data was then used to identify differentially expressed genes across specific comparisons (Love et al., 2014). This package was also used to perform principal component analysis. […] The ggplot2 R package was used to prepare bar plots, scatter plots, and density plots. The pheatmap R package was used to generate distance matrices, and clustered heatmaps. DESeq2 output was used to generate a ranked list for input into GSEA Pre-ranked (v6.0.12, Broad Institute) (Subramanian et al., 2005) for pathway analysis against the Curated (Canonical Pathway), Gene Ontology, and Hallmarks gene collections from MSigDb (Liberzon et al., 2015; Liberzon et al., 2011). Ranked scores were calculated by multiplying the sign of the log 2 fold change by the log 10 transformed adjusted p value. […] All immune response related gene sets were selected for display.
# To gain insights into BT2's mode of action we conducted next generation RNA sequencing (RNA-seq) with extracts of Jurkat T cells exposed to 10 μM BT2 for 4 h.
# [1] = 4 h, adjusted p value <0.05, pool of 19071 gene IDs
smiles,measurement,setting,value
"CCOC(=O)Nc1ccc2c(c1)C(=O)N(CC)c1ccccc1O2 [BT2, (10-ethyl-11-oxo-10,11-dihydro-dibenzo[b,f][1,4]oxazepin-2-yl)-carbamic acid ethyl ester]",number of genes suppressed ≥2-fold,4 h (Table 2),14
same,number of genes induced ≥2-fold,4 h (Table 3),30
same,number of genes induced,[1],1320
same,number of genes suppressed,[1],856

# Reference: patent publication US20250352555A1, “METHOD OF INCREASING IMMUNE CELL ACTIVATION AND/OR TREATING CANCER USING DIBENZOXAZEPINONES” (VASCULAR THERAPEUTICS PTY LTD, priority 2022, published 2025)
